Test results from PubChem BioAssay AID1347423 (Functional Genomics Laboratory (NCATS/FGL), 2020).
In all, about 52,000 sequences went through this assay and about 210 (0.4%) were called active.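 Rule for the calls: active = gene whose silencing raises cell survival under the drug, median off-target-corrected z-score across its silencing RNAs 2 or more; inactive = the rest.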 The list shows a part of the results.

assay: Resistance to Poly (ADP-Ribose) Polymerase inhibitor: Gene Identification via Genome-wide siRNA Screen; conditions: mouse BRCA2 R2336H ES cells, olaparib, CellTiter-Glo viability; hits give high values
In short: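 Mouse BRCA2 R2336H ES cells were reverse-transfected with siRNA (20 nM final), treated at 48 h with 500 nM olaparib, and read by CellTiter-Glo after 72 h. Scores: MAD-based z per siRNA, median per gene, seed off-target correction.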

| Sequence | z-score |
| --- | --- |
| CCCGUUCAAGCAAUUACAUTT against 6030408C04Rik | inactive: 0.256 |
| GGUGAACUUUACCUUCAACTT against Mov10 | inactive: 0.0478 |
| GCCACGCACUAUAAAGAUUTT against Pscd1 | inactive: -0.804 |
| CGCCCAUGUACAGAUUUGUTT against Olfr429 | inactive: -1.91 |
| CGGCUCCUUUCAUAUUACCTT against Akap7 | inactive: -0.638 |
| CCACUAUGACUUCAGGUGUTT against Olfr1465 | inactive: 0.337 |
| GGAAUGAUAGAAAAUGGACTT against 9130002C22Rik | inactive: 0.219 |
| GCUAGAUGCUAUGAAGCGATT against Ap3b1 | inactive: -0.42 |
| GCUCUACUGCGCUACCAAGTT against Fgf3 | inactive: -1.21 |
| GGGCAACCUGUCACAUUAUTT against Spam1 | inactive: -2.56 |
| GCAGGGUAUUGUCAAUGGCTT against 0610040J01Rik | inactive: 0.373 |
| GGGAAUUUGAGACCAUUUATT against AI586015 | inactive: 0.829 |
| GGUUCUGUUAAUGUACCAUTT against Cd53 | inactive: -0.36 |
| CCUUUACUGUCCAUUCCGATT against Stxbp2 | inactive: 0.799 |
| GCCCAAAGAUGACAUCGUATT against Gars | inactive: -1.86 |
| GCCAAUUUGAAUGGGAUGUTT against 2010012C16Rik | inactive: -0.707 |
| GCCUAUGGGUCAUUUCAAATT against Dock11 | inactive: -1.18 |
| CGAUCCCAUGUUGCCUAAUTT against Fut11 | inactive: -0.478 |
| GGAGAAACCUGGAAGAAGATT against 6030423D04Rik | inactive: -2.03 |
| GAAUAUACUCUUUGUGGUATT against Olfr1220 | inactive: -0.16 |
| GGCAGAACAUUAAUAGAUATT against Polr3h | inactive: 1.19 |
| GCUGUACGCCAAUGUGUACTT against D8Ertd457e | inactive: 0.021 |
| CCGAUGACGAACAGUUUGATT against Eif4ebp3 | inactive: -1.14 |
| CGAGCAAUUAAAUUCCUGUTT against Api5 | inactive: 0.238 |
| GGAGCUGGACAAGUUUAAGTT against Tjp4 | inactive: 1.14 |
| CCCGUCACCACUUAACAUGTT against 6530401P13 | inactive: 0.703 |

Shown as tab-separated lines: entries from further up.
Sequence	z-score
CCCGUUCAAGCAAUUACAUTT against 6030408C04Rik	inactive: 0.256
GGUGAACUUUACCUUCAACTT against Mov10	inactive: 0.0478
GCCACGCACUAUAAAGAUUTT against Pscd1	inactive: -0.804
CGCCCAUGUACAGAUUUGUTT against Olfr429	inactive: -1.91
CGGCUCCUUUCAUAUUACCTT against Akap7	inactive: -0.638
CCACUAUGACUUCAGGUGUTT against Olfr1465	inactive: 0.337
GGAAUGAUAGAAAAUGGACTT against 9130002C22Rik	inactive: 0.219
GCUCUACUGCGCUACCAAGTT against Fgf3	inactive: -1.21
GGGCAACCUGUCACAUUAUTT against Spam1	inactive: -2.56
GGGAAUUUGAGACCAUUUATT against AI586015	inactive: 0.829
CCUUUACUGUCCAUUCCGATT against Stxbp2	inactive: 0.799
GCCCAAAGAUGACAUCGUATT against Gars	inactive: -1.86
GCCAAUUUGAAUGGGAUGUTT against 2010012C16Rik	inactive: -0.707
GCCUAUGGGUCAUUUCAAATT against Dock11	inactive: -1.18
GGAGAAACCUGGAAGAAGATT against 6030423D04Rik	inactive: -2.03
GAAUAUACUCUUUGUGGUATT against Olfr1220	inactive: -0.16
GGCAGAACAUUAAUAGAUATT against Polr3h	inactive: 1.19
GCUGUACGCCAAUGUGUACTT against D8Ertd457e	inactive: 0.021
CCGAUGACGAACAGUUUGATT against Eif4ebp3	inactive: -1.14
CGAGCAAUUAAAUUCCUGUTT against Api5	inactive: 0.238
GGAGCUGGACAAGUUUAAGTT against Tjp4	inactive: 1.14
CCCGUCACCACUUAACAUGTT against 6530401P13	inactive: 0.703

Part of the list above, with each value named.
CCGAUGACGAACAGUUUGATT against Eif4ebp3
  z-score: inactive: -1.14
GGAGCUGGACAAGUUUAAGTT against Tjp4
  z-score: inactive: 1.14

Following part

| Sequence | z-score |
| --- | --- |
| GGACCAUCAGAGGAGAACUTT against Cuedc2 | inactive: 0.0577 |
| GGAGAUUAUUAACUUCACCTT against Hcn3 | inactive: -0.386 |
| GGAAGUUUGGUGGUCCAGUTT against 2410004L22Rik | inactive: -2.75 |
| GCCUUUUCCUGGUACUCGGTT against Ceacam13 | inactive: 1.27 |
| CGGAUGGAGCUAUGAUGUGTT against Ndufs4 | inactive: -0.897 |
| GGCUUCGCUCUGGUUUACUTT against Rap1b | inactive: 0.302 |
| GGUGAAACAGCGAAUAGGUTT against 2410005H09Rik | inactive: -0.437 |
| GGGUGAAUUAAAUUAGUUGTT against C130079G13Rik | inactive: 0.0696 |
| GGAAGUGAUUUACAGUUUCTT against 2310058J06Rik | inactive: -0.344 |
| AACAUUGCUUACCUUAGUGTT against Mrgprb1 | inactive: 0.713 |
| GGUAGACAAGCUGUUUGAUTT against 4632415K11Rik | inactive: 0.819 |
| GGAAUGUCACUUUGACUCUTT against 6530401D17Rik | inactive: 0.127 |
| GGUGAUAUAUCCAUCAAAATT against 0610033I05Rik | inactive: 0.481 |
| GCUGCACAAGUGCAUUUUUTT against Srp14 | inactive: -1.4 |
| CAUUGUCAUUCUGCUGGCATT against Olfr1249 | inactive: 1.06 |
| GCAUCAGAGGGAUUUCACUTT against Slc35d3 | inactive: -1.02 |
| GCAUAUCCUCCAAAAGAAATT against 2010106E10Rik | inactive: -0.453 |
| GCCUUAUCCCUCAUGUUACTT against Pde1c | inactive: 1.14 |
| GGAAAAAUGGAAACCUAAGTT against 9130020G22Rik | inactive: 0.47 |
| GAUGCAGUGCAAAGUAUACTT against Cldn9 | inactive: -1.9 |
| GCAAAUUGAGCUCCUACUCTT against Traip | inactive: 1.03 |
| GGCACAAAUGAAUUCAUACTT against BC003267 | inactive: -1.67 |
| GGGUUCUGCAUGUUGAUUCTT against Chm | inactive: -0.121 |
| GGAGGUUUUCUGGUAGCUGTT against Rnf138 | inactive: -1.61 |
| GGAGACAGAGAAGAUUUGUTT against Mia2 | inactive: -1.33 |
| GGUACAGUUAACUACAAACTT against C130023O10Rik | inactive: 1.08 |

| Sequence | z-score |
| --- | --- |
| GCCAGCGACCUUUAGUACATT against Cklfsf1 | inactive: -0.44 |
| GGCACUGAAAAGAAAGAAGTT against 2310010I16Rik | inactive: -1.52 |
| GGUUCAGAUAUCUCAGUAUTT against Rcor1 | inactive: 0.744 |
| GGACUAUAUGAGAUAAACUTT against Pask | inactive: -0.722 |
| GGCUGUGACUUGUUAAUCATT against AW049604 | inactive: -1.7 |
| AAUGAUGCCAUAAAGAGUGTT against Olfr114 | inactive: -1.05 |
| CCAUAGGUAUCAUUGCAAGTT against Tas2r139 | inactive: -0.382 |
| GGCCAAUUUGUUGAUUCCUTT against Rheb | inactive: 1.16 |
| GGUGCUGUGUUUACGUUUGTT against Rpgr | inactive: -1.19 |
| GGAAAAGCAAACCAGAAUCTT against Nr1d1 | inactive: 0.904 |
| GGUCUUUGAGAAGUACCACTT against Chst3 | inactive: 0.412 |
| CGAAGCAACAAGGAAAUUGTT against Anxa13 | inactive: 1.14 |
| GCUGAUGUGAAUCCAUCCATT against AL033326 | inactive: -0.488 |
| AUGGGACUCAUGUAAUGGUTT against 2410015A16Rik | inactive: 0.922 |
| CGGUAAUUGCAUUUUAAAGTT against Vps4b | inactive: 0.812 |
| GCUGAAUACCCUUUUAGUUTT against Atp2c1 | inactive: -0.0892 |
| CCUUUGUGACCAAGAUGGUTT against Ttyh3 | inactive: -0.779 |
| GGAUUUCCUUUUAAGACUUTT against Rab3il1 | inactive: 0.838 |
| GGCCACAGAAUUGAAAGAUTT against Il2 | inactive: -0.624 |
| GGACAUGAAGUGUAUAUAUTT against Il13ra2 | inactive: -1.91 |
| CCAGGUGCUAUGAGAUUAGTT against ORF21 | inactive: 0.606 |
| GCCUAUUCUUUUCGGGAUATT against Olfr39 | inactive: -1.74 |
| GGCACUUAAGUAUUCUUCATT against Wac | inactive: -1.02 |
| GGAUCUCCCUCUAAAUAUUTT against Hspca | inactive: 0.537 |
| AUAAAGAUGUUGCUGUUGCTT against Olfr44 | inactive: -0.687 |
| GGCUGUGUAUGCUUUACCATT against Dnajc11 | inactive: -0.103 |

| Sequence | z-score |
| --- | --- |
| GGGACUCUAAAAUCUCAGGTT against Samd10 | inactive: 0.36 |
| GGGACUUGUCCAUCCUUUUTT against C130060K24Rik | inactive: 2.31 |
| CCCGGGUCUUUGAUAUCUUTT against B130050I23Rik | inactive: 0.0321 |
| GCAGUCCAAAAAAUUCGGUTT against 4933409N07Rik | inactive: 0.183 |
| GGUGGUGUCAACCUUAAAATT against Vmp | inactive: -0.208 |
| GGUGCCAACCUCAAUUCAUTT against Hnf4a | inactive: -0.607 |
| GGCCAAAUACCUUACCAAGTT against Pold2 | inactive: -0.732 |
| GGCAUUUUAUCUGUUAGACTT against Serpinh1 | inactive: -0.509 |
| GGAGGAAACACAUCAUUUGTT against D1Bwg0491e | inactive: 0.384 |
| GCAAAGACGAAAUGCCGAGTT against 1700013G20Rik | inactive: 0.448 |
| GGAGACUUUCAGGAGAUUUTT against 2410127L17Rik | inactive: -0.986 |
| GGAAAUCUGUGUGAUUGAATT against Pcca | inactive: 1.63 |
| GCAUGUGGAGAAGAUGAGGTT against Tas2r143 | inactive: 0.405 |
| CGAAGUGCUUCAAUAGUAATT against Rnf14 | inactive: 0.678 |
| GGGCUUUUGGCUUCAUGACTT against Pcbd | inactive: 0.397 |
| CCAGCUCAGUUCCAAACAATT against Dnajc12 | inactive: 1.73 |
| GGUGUGACCUCAUCUUUUUTT against Suv420h2 | inactive: 0.929 |
| GGGAAGGAGAGUAUUCCAATT against Mrpl14 | inactive: 0.193 |
| GCAUCUUAUCAAAUAUCCATT against Abca1 | inactive: 0.689 |
| GGUCUCUGGUACACUUCAUTT against Ramp1 | inactive: -0.747 |
| GGGCUUGAAAGCAUACAAATT against Bcat2 | inactive: 0.0561 |
| CGGUGAAAGACUUCAGUAUTT against Ppfibp1 | inactive: -0.621 |
| GCUCAGGAACAUUUGGACATT against Cyp2a5 | inactive: 0.218 |
| GGUUUGGACACCUCUGUCATT against Adcy9 | inactive: -2.7 |
| CGUGGAACAUAAGAAUGGATT against Gapds | inactive: 0.998 |
